Inconclusive means that the source gave no clear call. Such entries were picked first, then a sample of the others. Potencies beside an inconclusive call are fits to weak or partial responses and may not hold up. Activity calls are given as the source filed them. Calls follow the shape of the dose curve; as a rule, active = well fitted inhibition curve with a large enough effect; inconclusive = small, poorly fitted or top-dose-only effect; inactive = no such curve, though single readings can be large or run the other way.
assay: Acumen qHTS Assay for Inhibitors of the mTORC1 Signaling Pathway in WT MEF Cells: Hit Validation; conditions: Acumen imaging; series mostly up to 37.3 µM; also: nearly all actives have a fitted effect of over 60% in size
In short: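 Read-out is immunofluorescent phospho-rpS6 (Ser235/236) normalised to PI-stained cell number, reported as % active cells using a 7.5 nM rapamycin threshold. Cells: WT or Tsc2-/-, p53-/- MEFs, compound-exposed 24 h at 37C; PI count also tracks viability.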
Potency is read from the fitted curve at half-maximal effect.

SMILES | Potency
Cc1ccc(CN2C(=O)C(O)(CC(=O)c3ccc(C)cc3)c3ccccc32)cc1 (stereo not given) | inconclusive: 3.69 µM [inhibitor, single point]
CCN(c1ccccc1)S(=O)(=O)c1ccc(NC(=O)c2nc(S(C)(=O)=O)ncc2Cl)cc1 | active: 1.04 µM
Cc1ccc(C)c(CN2CCC(CNC(=O)c3cc4ccc5cccnc5c4[nH]3)CC2)c1 | inconclusive: 26.1 µM [inhibitor, single point]
CCOc1ccc(NC(=O)N(Cc2c[nH]c3ccccc23)C2CCCCCC2)cc1 | inactive
CCOC(=O)c1ccc(N2C(=O)c3n[nH]c(-c4ccco4)c3C2c2ccc(OCC)cc2)cc1 (stereo not given) | inactive
CCCCC1CCC(C(=O)N2CC(=O)Nc3ccc(Cl)cc3C2c2ccc(F)cc2)CC1 (stereo not given) | inconclusive: 23.3 µM [inhibitor, single point]
CCOc1ccccc1NC(=O)c1c(NCc2sccc2C)sc2c1CCC(C)C2 (stereo not given) | inconclusive: 8.26 µM [inhibitor, partial curve]
Cc1ccc(S(=O)(=O)Nc2ccc3c(c2)c(C(=O)OC(C)C)c(C)n3S(=O)(=O)c2ccc(C)cc2)cc1 | inactive
CC1CCCCN1c1nnc(NC(=O)Nc2ccccc2F)s1 (stereo not given) | inactive
Cc1nc2nncn2c(NCc2ccc(F)cc2)c1C | inconclusive: 3.69 µM [inhibitor, full curve, poor fit]
Cc1noc(/C=C/N(C)C)c1S(=O)(=O)N1CCCC(C(=O)Nc2ccc(F)cc2F)C1 (stereo not given) | active: 1.85 µM
CCn1c2ccccc2c2cc(CN3CCN(Cc4ccc(Cl)cc4)CC3)ccc21 | inactive
O=C(CCCn1ccc2cc(S(=O)(=O)N3CCCC3)ccc21)NCc1ccc(Cl)cc1 | inactive
CCC(C)S(=O)(=O)c1oc(-c2ccc(F)cc2)nc1S(=O)(=O)c1ccc(F)cc1 (stereo not given) | inconclusive: 1.85 µM [inhibitor, single point]
COc1ccc(C)cc1NC(=O)CSc1ccc(-c2ccccn2)nn1 | inactive
Cc1nc2scc(C)n2c(=O)c1S(=O)(=O)Nc1ccc(N2CCOCC2)c(Cl)c1 | inconclusive: 2.93 µM [inhibitor, full curve, poor fit]
CC(Nc1oc(-c2ccc(COc3ccccc3)o2)nc1C#N)c1ccccc1 (stereo not given) | inconclusive: 23.3 µM [inhibitor, single point]
CC1=Nc2cc(C(=O)NC(C)C)ccc2Sc2ccc(C)cc21 | inconclusive: 2.33 µM [inhibitor, full curve]
CCCCOCc1cc(CN2CCN(c3cccc(Cl)c3)CC2)c(O)c2ncccc12 | inconclusive: 7.36 µM [inhibitor, partial curve]
Cc1[nH]c2ccccc2c1C1(O)C(=O)N(Cc2ccc(Cl)cc2)c2ccccc21 (stereo not given) | inconclusive: 1.47 µM [inhibitor, full curve, poor fit]

2 of the compounds above, with tabs.
SMILES	Potency
CCOC(=O)c1ccc(N2C(=O)c3n[nH]c(-c4ccco4)c3C2c2ccc(OCC)cc2)cc1 (stereo not given)	inactive
CCCCC1CCC(C(=O)N2CC(=O)Nc3ccc(Cl)cc3C2c2ccc(F)cc2)CC1 (stereo not given)	inconclusive: 23.3 µM [inhibitor, single point]

Later entries.

SMILES | Potency
O=C(NCCc1ccc(Cl)cc1)C(=O)NCC(c1cccs1)S(=O)(=O)c1cccs1 (stereo not given) | inactive
Cc1ccccc1NC(=O)Cn1cc(C(=O)c2cccs2)c2ccccc21 | inconclusive: 23.3 µM [inhibitor, single point]
CCc1ccc(-n2c(=O)c3c4c(sc3n(CC(=O)c3ccc(F)cc3)c2=O)CCC4)cc1 | active: 18.5 µM
Cc1ccc2c(c1)C(=O)C(=O)N2Cc1ccc(OC(C)C)cc1 | inconclusive: 20.7 µM [inhibitor, single point]
Cc1cc(C)c(/C=C2\C(=O)Nc3ccccc32)[nH]1 | inactive
Cc1cccc(-n2nnnc2S(C)(=O)=O)c1 | inconclusive: 0.0369 µM [inhibitor, full curve]
COC(=O)c1ccccc1NC(=O)Cn1c(=O)n(-c2ccc(C)cc2)c(=O)c2ccccc21 | inactive
Cc1ccc(NC(=O)c2c(NC(=O)C(F)(F)F)sc3c2CCCCC3)cc1 | inconclusive: 26.1 µM [inhibitor, single point]
Cc1ccc(C)c(NC(=O)c2nc(S(=O)(=O)Cc3ccc(F)cc3)ncc2Cl)c1 | active: 2.33 µM
Cc1cccc(OCC(O)Cn2c(=N)n(CCN3CCCCC3)c3ccccc32)c1 (stereo not given) | inconclusive: 13.1 µM [inhibitor, partial curve, poor fit]
CCCC1=Nc2cc(C(=O)NC3CCCC3)ccc2Sc2ccc(C)cc21 | active: 0.736 µM
COc1ccc(NC(=O)c2ccco2)cc1NC(=O)COc1ccccc1Cl | inactive
COCc1oc2ccc(NS(=O)(=O)c3ccc(C)cc3)cc2c1C(=O)OC | active: 5.85 µM
CCc1ccc(S(=O)(=O)N(C(=O)c2ccncc2)c2ccc3oc(C)c(C(=O)OC)c3c2)cc1 | inconclusive: 3.69 µM [inhibitor, full curve, poor fit]
COc1ccc(OC)c(NC(=O)c2nc(S(=O)(=O)Cc3ccc(F)cc3)ncc2Cl)c1 | active: 3.29 µM
COc1ccc(S(=O)(=O)N(C(=O)c2ccncc2)c2ccc3oc(C)c(C(C)=O)c3c2)cc1 | inconclusive: 0.414 µM [inhibitor, single point]
Cc1cccc(-n2cnc3cc(C(=O)NC4CCCCCC4)ccc32)c1 | active: 5.21 µM
CCS(=O)(=O)c1oc(-c2ccc(F)cc2)nc1S(=O)(=O)c1ccc(Br)cc1 | active: 4.65 µM
CCOC(=O)c1c(C)[nH]c(CCC(=O)Nc2cc(C)ccc2OC)c1C | inconclusive: 26.1 µM [inhibitor, single point]
CC(C)(C)c1ccc(C(=O)Nc2nnc3n2CCS3)cc1 | active: 8.26 µM

Reference: PubChem BioAssay AID651789 (National Center for Advancing Translational Sciences (NCATS), 2012)
